Amino acid sequences for entries named in this document (tags omitted).
UniProt Q15717, whole entry: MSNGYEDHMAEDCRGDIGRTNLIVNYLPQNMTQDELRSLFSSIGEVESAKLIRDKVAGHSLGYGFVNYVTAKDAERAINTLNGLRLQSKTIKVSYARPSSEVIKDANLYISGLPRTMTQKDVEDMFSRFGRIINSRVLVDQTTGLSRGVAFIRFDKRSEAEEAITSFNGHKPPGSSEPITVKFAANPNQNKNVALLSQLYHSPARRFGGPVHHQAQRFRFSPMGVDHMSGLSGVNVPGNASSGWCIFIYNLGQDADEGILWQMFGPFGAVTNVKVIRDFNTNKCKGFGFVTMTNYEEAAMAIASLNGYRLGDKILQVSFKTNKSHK

The other results are listed elsewhere or left out. This data set is noisy: repeats of one test often differ as much as different tests do. Peptide text beside a SMILES is read from it. * marks the point of attachment. For = O=C*
What follows are molecules tested against HuR (ELAVL1) - TNFalpha ARE RNA complex (UniProt Q15717) (assay: AlphaScreen HuR-RNA complex signal Z-score relative to positive (Bi-TNF, DMSO) controls (Z-score (SD units of positive control)); higher = more complex signal). Settings: screen stage: primary screen; compound concentration: 25 nM.
With COc1cc(CNC(=O)CCCC/C=C/C(C)C)ccc1O the “AlphaScreen HuR-RNA complex signal Z-score” value was 0.667.
With COC(=O)c1c(OC)cc2c(c1C)Oc1c(Cl)c(O)c(Cl)c(C)c1C(=O)O2 the “AlphaScreen HuR-RNA complex signal Z-score” value was 2.07.
With CO/N=C(\C(=O)N[C@@H]1C(=O)N2C(C(=O)O)=C(COC(C)=O)CS[C@H]12)c1csc(N)n1 the “AlphaScreen HuR-RNA complex signal Z-score” value was -3.62.
With CC(=O)O[C@]1(C)CC[C@@]23C[C@H]1C(C)(C)[C@@H]2CC[C@H]3C the “AlphaScreen HuR-RNA complex signal Z-score” value was 0.582.
CC(=O)Nc1c(I)cc(I)c(C(=O)O)c1I was tested, and the “AlphaScreen HuR-RNA complex signal Z-score” value was 1.31.
With Cc1cc2cc3c(C)cc(=O)oc3c(C)c2o1 the “AlphaScreen HuR-RNA complex signal Z-score” value was -0.867.
CC(=O)Nc1nnc(S(N)(=O)=O)s1 was tested, and the “AlphaScreen HuR-RNA complex signal Z-score” value was 0.311.
COC1=CC(=O)C(O)=C/C1=C\C=C\c1ccccc1 was tested, and the “AlphaScreen HuR-RNA complex signal Z-score” value was 1.78.
In the case of COc1cc(O)c2c(=O)cc(C)oc2c1CC=C(C)C, the “AlphaScreen HuR-RNA complex signal Z-score” value is reported as 2.12.
OC[C@@H](O)[C@@H](O[C@@H]1O[C@H](CO)[C@@H](O)[C@H](O)[C@H]1O)[C@H](O)[C@@H](O)CO was tested, and the “AlphaScreen HuR-RNA complex signal Z-score” value was 1.87.
With C[N+](C)(C)CC(O)CC(=O)[O-] (stereo not drawn) the “AlphaScreen HuR-RNA complex signal Z-score” value was 1.18.
With Nc1ncnc2c1ncn2[C@@H]1O[C@H](CO)[C@@H](O)[C@@H]1O the “AlphaScreen HuR-RNA complex signal Z-score” value was -0.97.
In the case of O=c1[nH]cnc2nc[nH]c12, the “AlphaScreen HuR-RNA complex signal Z-score” value is reported as 1.91.
For C[C@@](Cc1ccc(O)c(O)c1)(NN)C(=O)O, the “AlphaScreen HuR-RNA complex signal Z-score” value was 2.2.
For CC(C)CC(NC(=O)OCC1c2ccccc2-c2ccccc21)C(=O)O (stereo in doubt), the “AlphaScreen HuR-RNA complex signal Z-score” value was 2.24.
For CN(C)CCC(c1ccc(Br)cc1)c1ccccn1 (stereo not drawn), the “AlphaScreen HuR-RNA complex signal Z-score” value was 0.674.
For Oc1c(Cl)cc(Cl)c2cccnc12, the “AlphaScreen HuR-RNA complex signal Z-score” value was 1.34.
For c1ccc(-c2ccc(C(c3ccccc3)n3ccnc3)cc2)cc1 (stereo not drawn), the “AlphaScreen HuR-RNA complex signal Z-score” value was 0.724.
In the case of N#Cc1ccc2c(c1)N(CCCN1CCC(O)CC1)c1ccccc1S2, the “AlphaScreen HuR-RNA complex signal Z-score” value is reported as 2.59.
With CCC1(c2ccccc2)C(=O)NCNC1=O the “AlphaScreen HuR-RNA complex signal Z-score” value was 7.34.
For NC(Cn1ccc(=O)c(O)c1)C(=O)O (stereo not drawn), the “AlphaScreen HuR-RNA complex signal Z-score” value was -0.346.
CC(C)NCC(O)COc1ccc(CC(N)=O)cc1 (stereo not drawn) was tested, and the “AlphaScreen HuR-RNA complex signal Z-score” value was 0.669.
With Oc1cc2c(cc1O)C(c1ccccc1)CNCC2 (stereo not drawn) the “AlphaScreen HuR-RNA complex signal Z-score” value was 0.672.
For CN1CCN(CC(=O)N2c3ccccc3C(=O)Nc3cccnc32)CC1, the “AlphaScreen HuR-RNA complex signal Z-score” value was 1.
COC(=O)Nc1nc2cc(Sc3ccccc3)ccc2[nH]1 was tested, and the “AlphaScreen HuR-RNA complex signal Z-score” value was 0.209.
With N=C(N)NCCCCNC(=N)N the “AlphaScreen HuR-RNA complex signal Z-score” value was 1.57.
With CO[C@H]1/C=C/O[C@@]2(C)Oc3c(C)c(O)c4c(O)c(c5c(nc6cc(C)ccn65)c4c3C2=O)NC(=O)/C(C)=C\C=C\[C@H](C)[C@H](O)[C@@H](C)[C@@H](O)[C@@H](C)[C@H](OC(C)=O)[C@@H]1C the “AlphaScreen HuR-RNA complex signal Z-score” value was -0.875.
In the case of Clc1cccc(Cl)c1NC1=NCCN1, the “AlphaScreen HuR-RNA complex signal Z-score” value is reported as -5.2.
With CC1(C)CC2C1CC[C@]1(C)CCC3C(C(=O)O)CC(=O)O[C@@]32C1 (stereo partly drawn) [3-HYDROXY-4-(SUCCIN-2-YL)-CARYOLANE delta-LACTONE] the “AlphaScreen HuR-RNA complex signal Z-score” value was 2.54.
For CCCNC(=O)NS(=O)(=O)c1ccc(Cl)cc1, the “AlphaScreen HuR-RNA complex signal Z-score” value was -1.67.
For CCN(CC)C(C)CN1c2ccccc2Sc2ccccc21 (stereo not drawn), the “AlphaScreen HuR-RNA complex signal Z-score” value was -2.63.
CC(=O)O[C@]1(C(C)=O)CC[C@H]2[C@@H]3C=C(Cl)C4=CC(=O)CC[C@]4(C)[C@H]3CC[C@@]21C was tested, and the “AlphaScreen HuR-RNA complex signal Z-score” value was 2.38.
In the case of NCCCCCC(=O)O, the “AlphaScreen HuR-RNA complex signal Z-score” value is reported as 0.32.
With CC(=O)OC/C=C(\C)CC/C=C(\C)CC/C=C(\C)CC/C=C(\C)CC/C=C(\C)CC/C=C(\C)CC/C=C(\C)CC/C=C(\C)CCC=C(C)C the “AlphaScreen HuR-RNA complex signal Z-score” value was 0.982.
For CN(C)C(=N)NC(=N)N, the “AlphaScreen HuR-RNA complex signal Z-score” value was 0.799.
For CC1CC2C3CCC4=CC(=O)C=CC4(C)C3(F)C(O)CC2(C)C1C(=O)CO (stereo not drawn), the “AlphaScreen HuR-RNA complex signal Z-score” value was 2.7.
For CNCCc1ccccn1, the “AlphaScreen HuR-RNA complex signal Z-score” value was -0.7.
For C[C@H]1[C@H](C)CC[C@]2(C(=O)O)CC[C@]3(C)C(=CC[C@@H]4[C@@]5(C)CC[C@H](O)C(C)(C)[C@@H]5CC[C@]43C)[C@H]12, the “AlphaScreen HuR-RNA complex signal Z-score” value was 1.55.
In the case of CCN(CC)C(=O)c1ccc(O)c(OC)c1, the “AlphaScreen HuR-RNA complex signal Z-score” value is reported as 2.2.
In the case of NC1(C(=O)O)CC1, the “AlphaScreen HuR-RNA complex signal Z-score” value is reported as 2.4.
For Oc1cc2c(cc1O)C1c3ccc(O)c(O)c3OCC1(O)C2 (stereo not drawn), the “AlphaScreen HuR-RNA complex signal Z-score” value was 2.53.
For CC(=O)[C@@]1(O)CC[C@H]2[C@@H]3CCC4=CC(=O)CC[C@]4(C)[C@H]3CC[C@@]21C, the “AlphaScreen HuR-RNA complex signal Z-score” value was 0.395.
For CN(C)CCOC(c1ccccc1)c1ccccc1.Cn1c(=O)c2[nH]c(Cl)nc2n(C)c1=O, the “AlphaScreen HuR-RNA complex signal Z-score” value was -3.39.
With C[C@@H]1CC[C@@]23CCC4(C)[C@@](C=CC5[C@@]6(C)CC[C@H](O)C(C)(C)C6CC[C@]54C)(OC2=O)C3[C@H]1C (stereo partly drawn) the “AlphaScreen HuR-RNA complex signal Z-score” value was -4.93.
For O=C1NCC2(CCN(CCc3ccccc3)CC2)O1, the “AlphaScreen HuR-RNA complex signal Z-score” value was 0.733.
In the case of COc1cc(C)c(C(=O)Oc2cc(C)c(C(=O)O)c(O)c2C)c(OC)c1C, the “AlphaScreen HuR-RNA complex signal Z-score” value is reported as 2.14.
For CSCC[C@H](NC=O)C(=O)N[C@@H](Cc1ccccc1)C(=O)O (For-Met-Phe-OH), the “AlphaScreen HuR-RNA complex signal Z-score” value was 1.7.
CC(=O)O[C@@H]1C[C@H]2C(C)(C)C(=O)C=C[C@]2(C)[C@H]2CC[C@@]3(C)[C@H](c4ccoc4)OC(=O)[C@H]4O[C@]43[C@@]21C was tested, and the “AlphaScreen HuR-RNA complex signal Z-score” value was -0.19.

— the supplement of paper PMC3741180, “A Novel High Throughput Biochemical Assay to Evaluate the HuR Protein-RNA Complex Formation” (PLoS ONE, 2013)
